# Measured values from PubChem BioAssay AID504847 (National Center for Advancing Translational Sciences (NCATS), 2011).
# By UniProt entry, the sequences of proteins in these tests, tags left out. Where a name states a change or a piece, a line headed by the entry shows the natural chain unless it says otherwise.
# UniProt P11473: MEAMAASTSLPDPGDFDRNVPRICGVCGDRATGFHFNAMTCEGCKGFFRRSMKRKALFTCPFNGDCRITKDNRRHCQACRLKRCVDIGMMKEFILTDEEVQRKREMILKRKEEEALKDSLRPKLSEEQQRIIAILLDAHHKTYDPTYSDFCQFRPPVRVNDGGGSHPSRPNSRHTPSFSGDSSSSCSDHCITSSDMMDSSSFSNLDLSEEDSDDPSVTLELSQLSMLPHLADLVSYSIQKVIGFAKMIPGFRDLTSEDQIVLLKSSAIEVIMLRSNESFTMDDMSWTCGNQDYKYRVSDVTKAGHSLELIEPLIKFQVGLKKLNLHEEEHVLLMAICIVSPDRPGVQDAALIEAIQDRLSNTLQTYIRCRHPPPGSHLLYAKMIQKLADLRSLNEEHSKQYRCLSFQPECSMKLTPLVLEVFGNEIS
# Several values for one entry are separate records, joined by “and”; a condition that tells them apart may be missing. Equal values may be shown once. The campaign covered roughly 400,000 compounds. About 3,700 (0.93%) were called active. The inconclusive results got no clear call from the source; some entries with a clear call stand among them for comparison. The call rests on the fitted dose curve; in most records, active means well fitted inhibition curve with a large enough effect; inconclusive means small, poorly fitted or top-dose-only effect, or another doubt; inactive means no such curve, though single readings can be large or run the other way. A potency beside an inconclusive call is a rough fit, not a confirmed value.
# Molecular target: Vitamin D3 receptor (Homo sapiens) (UniProt P11473)
# Assay: Inhibitors of the vitamin D receptor (VDR): qHTS
# Conditions: VDR-SRC2-3 peptide fluorescence polarization, 2 h; max response, negative = inhibition: stronger effect = lower value
# Procedure, shortened: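 After 23 nl compound addition and a short centrifugation, plates sat for 2 hours at ambient temperature; polarization of fluorescence then indicated loss of VDR binding to peptide SRC2-3.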
# On the % scale 0 is the no-effect control and ±100 the full control effect; potency means the concentration at half of the fitted maximal effect.
Structure (SMILES),"max response, negative = inhibition",Potency
CCn1cc(C(=O)NCc2ccc(Cl)cc2)c(=O)c2cc(S(=O)(=O)N3CCOCC3)ccc21,inactive: 0%,–
COc1ccc(N=c2nc(-c3ccccc3)n(-c3ccc(C)cc3)s2)cc1,–,"inconclusive: 100 µM [inhibitor, single point]"
CC(C)(Oc1ccc(Cl)cc1)C(=O)NCc1ccco1,–,"inconclusive: 22.4 µM [inhibitor, partial curve, poor fit]"
CN(C)c1ccc(N/C=C/C(=O)c2ccc(F)cc2)cc1,–,"inconclusive: 56.2 µM [inhibitor, partial curve, poor fit]"
COc1ccc(C(=O)c2coc3c2C(=O)C(=O)c2ccccc2-3)cc1,–,"inconclusive: 8.91 µM [inhibitor, full curve, poor fit]"
COc1ccc(N=Cc2c(O)cc(C)oc2=O)cc1,inactive: -13.9%,–
COC(=O)Cn1c2ccc(F)cc2c2nc(C)sc21,–,active: 79.4 µM
O=S(=O)(NCCCN1CCOCC1)c1ccc(Cl)s1,–,"inconclusive: 35.5 µM [inhibitor, partial curve, poor fit]"
CCOc1ccc(NC(=S)NNc2ccnc3cc(Cl)ccc23)cc1,–,"inconclusive: 79.4 µM [inhibitor, single point]"
NC(=S)NNC(=S)Nc1ccccc1,–,"inconclusive: 28.2 µM [inhibitor, single point]"
Fc1ccc(N=C2NN=C(c3cc(F)ccc3F)CS2)cc1,–,active: 31.6 µM
Cc1ccc(S(=O)(=O)N2[C@@H](c3ccc(Br)cc3)C(C(=O)O)=CC[C@H]2c2ccc(Cl)c(Cl)c2)cc1,–,"inconclusive: 89.1 µM [inhibitor, partial curve, poor fit]"
Cn1cnc([N+](=O)[O-])c1S(=O)(=O)Oc1ccc(Cl)cc1,–,active: 25.1 µM
CC1(C)CC(=O)C(C(C2=C(O)CC(C)(C)CC2=O)c2ccco2)C(=O)C1 (configuration not stated),–,"inconclusive: 35.5 µM [inhibitor, single point]"
CC(C)C[C@@H](CN)NC(=O)c1nc[nH]c1C(=O)N[C@@H](Cc1ccccc1)C(=O)CNC[C@H](C)NC(=O)c1nc[nH]c1C(=O)N[C@@H](CC(C)C)C(=O)O,inactive: -22.1%,–
CC(C(=O)Nc1ccccc1-c1ccccc1)N(C)Cc1nc2ccccc2c(=O)[nH]1 (configuration not stated),–,"inconclusive: 31.6 µM [inhibitor, single point]"
Cc1ccc(SCC(=O)NCc2ccco2)cc1,inactive: 11.2%,–
Cc1[nH]c(C)c(S(=O)(=O)Nc2ccccc2Cl)c1C(=O)N1CCCC1,inactive: -4.86%,–
COc1ccc2[nH]cc(CCNc3cc(-c4c(C)noc4C)ncn3)c2c1,–,"inconclusive: 56.2 µM [inhibitor, partial curve, poor fit]"
COc1ncc2ncc(=O)n(Cc3cccs3)c2n1,–,"inconclusive: 100 µM [inhibitor, single point]"
Cc1cc(C)[n+](-c2ccc(Oc3ccccc3)c(S(=O)(=O)[O-])c2)[nH]1,–,"inconclusive: 56.2 µM [inhibitor, partial curve, poor fit]"
COc1ccc(-c2onc(C)c2-c2ccc3c(c2)OCCO3)c(O)c1,–,"inconclusive: 5.01 µM [inhibitor, partial curve, poor fit]"
Cc1cc(/C=N/NC(=O)CC#N)c(C)n1-c1ccc([N+](=O)[O-])cc1,–,"inconclusive: 79.4 µM [inhibitor, single point]"

Structure (SMILES),"max response, negative = inhibition",Potency
CCOc1ccc(C(Nc2cccnc2)c2cc(Cl)c3cccnc3c2O)cc1 (configuration not stated),–,"inconclusive: 28.2 µM [inhibitor, single point]"
Cc1coc2c(C)c3oc(=O)c(CCC(=O)N4CCC(C(=O)NCCCC(=O)O)(c5ccccc5)CC4)c(C)c3cc12,–,"inconclusive: 100 µM [inhibitor, partial curve, poor fit]"
COc1ccc(CNC(=O)C2CCN(S(=O)(=O)c3ccc4c(c3)CCCN4C(C)=O)CC2)cc1,inactive: 5.13%,–
COC(=O)N/N=C/c1ccc(-c2ccc(Cl)cc2Cl)o1,inactive: 3.33%,–
CCc1[nH]c(=S)c(C#N)c2c1CCCC2,–,"inconclusive: 89.1 µM [inhibitor, partial curve, poor fit]"
N#Cc1c(-c2ccc(Br)cc2)cc(-c2cccnc2)nc1N,–,"inconclusive: 79.4 µM [inhibitor, single point]"
CCNC(=O)NC(=O)CSc1ccc2ccccc2c1,–,"inconclusive: 3.55 µM [inhibitor, full curve]"
O=C(NCCc1cscn1)C1CCC(=O)N(Cc2ccc(Cl)cc2)C1 (configuration not stated),inactive: 15.2%,–
CCOC(=O)c1nn(-c2ccc(OC)cc2)c(=O)c2c(N)scc12,–,active: 17.8 µM
COc1ccc(N2CC(NC(=O)/C=C\c3ccccc3)CC2=O)cc1OC (configuration not stated),inactive: 17.6%,–
CN(Cc1ccco1)S(=O)(=O)c1nnc(NC(=O)c2ccccc2Cl)s1,–,"inconclusive: 56.2 µM [inhibitor, partial curve, poor fit]"
CCC(=O)N1CCc2cc(S(=O)(=O)NC(C(=O)NCCc3cccc(C)c3)C(C)C)ccc21 (configuration not stated),inactive: -13.2%,–
Cc1ccc2c(c1)C(c1ccccc1)N(C(=O)c1ccc(S(=O)(=O)N3CCOCC3)cc1)CC(=O)N2 (configuration not stated),–,"inconclusive: 44.7 µM [inhibitor, partial curve, poor fit]"
Cc1ccc(C(=O)CSc2nnc(-c3ccco3)n2Cc2ccccc2)cc1,–,"inconclusive: 7.08 µM [inhibitor, single point]"
COc1cccc(-c2ccc3ncnc(N4CCNCC4)c3c2)c1,–,"inconclusive: 56.2 µM [inhibitor, partial curve, poor fit]"
Cc1ccc2nc(SCC(=O)Nc3ncccn3)[nH]c2c1,inactive: 22.9%,–
Cc1cc(C)c2nc(N3C(=O)C(O)=C(C(=O)c4ccco4)C3c3cccc(O)c3)sc2c1 (configuration not stated),–,active: 79.4 µM
c1ccc(-c2nn3c(Cn4cnc5ccccc54)nnc3s2)cc1,–,"inconclusive: 56.2 µM [inhibitor, partial curve, poor fit]"
Cc1nn(C2CCS(=O)(=O)C2)c(C)c1C=O (configuration not stated),–,"inconclusive: 35.5 µM [inhibitor, single point]"
Cn1nnnc1Sc1ncnc2scc(-c3ccc([N+](=O)[O-])cc3)c12,–,"inconclusive: 100 µM [inhibitor, partial curve, poor fit]"
COc1ccc(-c2cc(C(=O)NCCCn3ccnc3)no2)cc1OC,–,"inconclusive: 4.47 µM [inhibitor, single point]"
Nc1nc(Sc2ccc([N+](=O)[O-])c3nonc23)c2[nH]cnc2n1,–,active: 14.1 µM
CC(C(=O)NCCC1=CCCCC1)c1ccc([N+](=O)[O-])cc1 (configuration not stated),inactive: -5.82%,–

Structure (SMILES),"max response, negative = inhibition",Potency
O=C1/C(=C\c2cc(Br)cc(Br)c2O)SC(=S)N1Cc1ccccc1,–,active: 50.1 µM
COc1ccccc1CNC(=O)C(CC(C)C)NC(=O)C1CCC(C)CC1 (configuration not stated),inactive: 2.15%,–
CCN(CC)c1ccc(C=Nc2ccc(N(C)C)cc2)c(O)c1,–,"inconclusive: 1.58 µM [inhibitor, full curve, poor fit]"
CCOc1cc(/C=C2\C(=N)N3N=CSC3=NC2=O)ccc1OS(=O)(=O)c1ccccc1,–,"inconclusive: 56.2 µM [inhibitor, partial curve, poor fit]"
Cc1cc(Br)cc2c1N(Cc1ccccc1OC(C)C)C(=O)C2=O,–,active: 12.6 µM
CCc1nn2c(=O)c(S(=O)(=O)Nc3ccc(C)c(C)c3)c(C)nc2s1,inactive: -9.14%,–
COc1ccc(CNc2ccnc(-c3ccoc3)n2)c(OC)c1,–,"inconclusive: 50.1 µM [inhibitor, partial curve]"
COc1ccc(N2CCN(C(CNC(C)=O)c3ccco3)CC2)cc1 (configuration not stated),inactive: 5.98%,–
CC(C)(C)C(=O)CSc1ncccn1,–,"inconclusive: 100 µM [inhibitor, single point]"
Nc1c(N=Nc2ccc(-c3ccc(N=Nc4cc(S(=O)(=O)O)c5ccccc5c4N)cc3)cc2)cc(S(=O)(=O)O)c2ccccc12,–,active: 20 µM and active: 28.2 µM
CC(=O)N1c2ccc(S(=O)(=O)NC(CC(=O)O)c3ccc(Br)cc3)cc2CC1C (configuration not stated),–,"inconclusive: 28.2 µM [inhibitor, single point]"
Cc1nc(C)c(C(=O)OCC(=O)NCCc2ccc(S(N)(=O)=O)cc2)s1,inactive: -6.62%,–
CCn1c(SC(C)C)nnc1-c1cc(-c2ccccc2)sc1N,–,"inconclusive: 79.4 µM [inhibitor, single point]"
Cc1ccc(OCCN2CCCC2)cc1,–,"inconclusive: 89.1 µM [inhibitor, single point]"
COc1ccc(OC)c(NC(=O)c2c3c(nc4ccccc24)CCC3)c1,inactive: 11.3%,–
CC(C)OCCCNC(=S)Nc1ccc(S(N)(=O)=O)cc1,–,"inconclusive: 50.1 µM [inhibitor, partial curve, poor fit]"
CC1CCCCN1C(=O)CSc1c2c(nc3cc(Cl)ccc13)CCCC2 (configuration not stated),–,"inconclusive: 79.4 µM [inhibitor, single point]"
C=CCn1c(=NC(=O)c2ccco2)sc2cc(C(=O)OCC)ccc21,–,"inconclusive: 89.1 µM [inhibitor, partial curve, poor fit]"
COCCN(C(=O)COC(=O)CCOc1cc(C)ccc1C)c1c(N)n(Cc2ccccc2)c(=O)[nH]c1=O,–,"inconclusive: 44.7 µM [inhibitor, partial curve, poor fit]"
C=CCN1C(=O)/C(=N/n2cnnc2)c2ccccc21,–,active: 39.8 µM
O=C(NC(=S)Nc1ccc(Cc2ccncc2)cc1)c1ccccc1F,inactive: -2.76%,–

# Part of the list above in order of count of non-hydrogen atoms, smallest number first.
Structure (SMILES),"max response, negative = inhibition",Potency
Cc1ccc(OCCN2CCCC2)cc1,–,"inconclusive: 89.1 µM [inhibitor, single point]"
Cc1nc(C)c(C(=O)OCC(=O)NCCc2ccc(S(N)(=O)=O)cc2)s1,inactive: -6.62%,–
Nc1c(N=Nc2ccc(-c3ccc(N=Nc4cc(S(=O)(=O)O)c5ccccc5c4N)cc3)cc2)cc(S(=O)(=O)O)c2ccccc12,–,active: 20 µM and active: 28.2 µM
